Counter-ions that a name gives are not always drawn. This is a noisy data set.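 Immortalized human renal angiomyolipoma cells with an empty vector keep TSC2 lost. A luminescent ATP assay measured viability, normalized per plate to vehicle-treated wells, in low-serum medium where TSC2-rescued cells fail to grow.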 Where a SMILES comes first, the peptide text is derived from it. The star is where a group is joined. Cbz = O=C(OCc1ccccc1)*
Test system: 621-102 (TSC2-deficient)
Test: relative viability vs DMSO (fraction); higher = less cytotoxic
Conditions: serum: 0.1% FBS, 72 h

Structure (SMILES) | relative viability (0.0128 nM) | relative viability (0.064 nM) | relative viability (0.32 nM) | relative viability (1.6 nM) | relative viability (8 nM) | relative viability (40 nM) | relative viability (200 nM) | relative viability (1000 nM) | relative viability (5000 nM)
Nc1ccn([C@@H]2O[C@H](CO)[C@@H](O)C2(F)F)c(=O)n1 [Gemcitabine HCl] | 0.817 | 0.71 | 0.733 | 0.082 | 0.0166 | 0.0176 | 0.0209 | 0.0169 | 0.0166
CNC(C)C1CCC(N)C(OC2C(N)CC(N)C(OC3OCC(C)(O)C(NC)C3O)C2O)O1 (configuration not stated) [Gentamycin sulfate] | 0.724 | 0.761 | 0.726 | 0.748 | 0.689 | 0.645 | 0.634 | 0.618 | 0.291
CN1C2CCCC1CC(NC(=O)c1nn(C)c3ccccc13)C2 (configuration not stated) [Granisetron HCl] | 1.37 | 1.44 | 1.84 | 1.77 | 1.22 | 0.836 | 1.13 | 1.5 | 1.44
COc1ccc(S(=O)(=O)N(C(C)=O)c2ccccc2/C=C/c2cc[n+]([O-])cc2)cc1 [HMN-214] | 0.809 | 0.856 | 0.898 | 0.275 | 0.905 | 0.587 | 0.0381 | 0.0479 | 0.0389
CCS(=O)(=O)Nc1ccc2c(c1)/C(=C(/Nc1ccc(CN3CCCCC3)cc1)c1ccccc1)C(=O)N2 [Hesperadin] | 0.878 | 0.748 | 0.881 | 0.897 | 0.343 | 0.0346 | 0.0223 | 0.00646 | 0.00811
CC[C@H](c1ccc(O)cc1)[C@@H](CC)c1ccc(O)cc1 [Hexestrol] | 0.934 | 1.03 | 1.05 | 0.903 | 0.898 | 0.917 | 0.866 | 0.778 | 0.0962
O=C1[C@H](Cc2ccc(O)cc2)N2C(=O)CCN(C(=O)NCc3ccccc3)[C@H]2CN1Cc1cccc2ccccc12 [ICG-001] | 1.03 | 1.08 | 1.09 | 0.997 | 0.713 | 0.738 | 0.817 | 0.457 | 0.462
CCN(CC)Cc1ccc2cc(COC(=O)Nc3ccc(C(=O)NO)cc3)ccc2c1 [ITF2357] | 0.727 | 0.654 | 0.667 | 0.664 | 0.571 | 0.601 | 0.191 | 0.0156 | 0.0314
CC(C)Cc1ccc(C(C)C(=O)O)cc1 (configuration not stated) [Ibuprofen] | 0.614 | 0.745 | 0.814 | 0.777 | 0.842 | 0.842 | 0.784 | 0.819 | 0.106
COc1ccc(-c2oc3c(CC=C(C)C)c(O[C@@H]4O[C@H](CO)[C@@H](O)[C@H](O)[C@H]4O)cc(O)c3c(=O)c2O[C@@H]2O[C@@H](C)[C@H](O)[C@@H](O)[C@H]2O)cc1 [Icariin] | 0.591 | 0.799 | 0.636 | 0.598 | 0.636 | 0.557 | 0.622 | 0.567 | 0.672
Cc1ccc(NC(=O)c2ccc(CN3CCN(C)CC3)cc2)cc1Nc1nccc(-c2cccnc2)n1 [Imatinib (STI571)] | 0.973 | 0.925 | 0.951 | 0.92 | 0.875 | 0.821 | 0.777 | 0.67 | 0.325
Cc1ccc(NC(=O)c2ccc(CN3CCN(C)CC3)cc2)cc1Nc1nccc(-c2cccnc2)n1 [Imatinib Mesylate (STI571)] | 0.865 | 0.819 | 0.955 | 0.428 | 0.941 | 0.27 | 0.743 | 0.617 | 0.0615
O=C1Nc2ccccc2/C1=C1/Nc2ccccc2C1=O [Indirubin] | 0.932 | 1.04 | 1.04 | 1.07 | 0.359 | 0.036 | 0.0167 | 0.00682 | 0.0113
CCCCC1=NC2(CCCC2)C(=O)N1Cc1ccc(-c2ccccc2-c2nnn[nH]2)cc1 [Irbesartan] | 0.799 | 0.77 | 0.823 | 0.736 | 0.691 | 0.713 | 0.688 | 0.721 | 0.733
CCc1c2c(nc3ccc(OC(=O)N4CCC(N5CCCCC5)CC4)cc13)-c1cc3c(c(=O)n1C2)COC(=O)[C@]3(O)CC [Irinotecan HCl Trihydrate] | 0.815 | 0.841 | 0.821 | 0.789 | 0.785 | 0.729 | 0.715 | 0.705 | 0.086
CCc1c2c(nc3ccc(OC(=O)N4CCC(N5CCCCC5)CC4)cc13)-c1cc3c(c(=O)n1C2)COC(=O)[C@]3(O)CC [Irinotecan] | 0.742 | 0.73 | 0.826 | 0.726 | 0.739 | 0.753 | 0.554 | 0.0526 | 0.0315
Clc1ccc(C(Cn2ccnc2)OCc2c(Cl)cccc2Cl)c(Cl)c1 (configuration not stated) [Isoconazole nitrate] | 0.965 | 0.923 | 0.994 | 0.98 | 0.92 | 0.827 | 0.723 | 0.644 | 0.0115

Structure (SMILES) | relative viability (0.0128 nM) | relative viability (0.064 nM) | relative viability (0.32 nM) | relative viability (1.6 nM) | relative viability (8 nM) | relative viability (40 nM) | relative viability (200 nM) | relative viability (1000 nM) | relative viability (5000 nM)
CC(C)NCC(O)c1ccc(O)c(O)c1 (configuration not stated) [Isoprenaline HCl] | 0.529 | 0.516 | 0.657 | 0.788 | 0.641 | 0.538 | 0.458 | 0.714 | 0.656
CCC(C)n1ncn(-c2ccc(N3CCN(c4ccc(OCC5COC(Cn6cncn6)(c6ccc(Cl)cc6Cl)O5)cc4)CC3)cc2)c1=O (configuration not stated) [Itraconazole] | 0.966 | 0.894 | 0.884 | 0.967 | 0.872 | 0.865 | 0.693 | 0.15 | 0.0141
CCCNC(=O)Nc1ccc(Oc2ncnc3cc(OC)c(OC)cc23)cc1Cl [KRN 633] | 0.825 | 0.867 | 0.845 | 0.798 | 0.914 | 0.878 | 0.772 | 0.726 | 0.313
O=C(c1ccc(/C=C/c2n[nH]c3ccccc23)cc1)N1CCNCC1 [KW 2449] | 0.822 | 0.892 | 0.798 | 0.778 | 0.79 | 0.726 | 0.792 | 0.0313 | 0.0165
O=C(Cc1ccc(-c2ccc(OCCN3CCOCC3)cc2)cn1)NCc1ccccc1 [KX2-391] | 0.584 | 0.696 | 0.569 | 0.507 | 0.446 | 0.225 | 0.0636 | 0.0352 | 0.0423
O=C(c1ccc(F)cc1)C1CCN(CCn2c(=O)[nH]c3ccccc3c2=O)CC1 [Ketanserin (Vulketan Gel)] | 0.799 | 0.834 | 0.834 | 0.795 | 0.751 | 0.71 | 0.717 | 0.718 | 0.584
O=C(c1ccccc1)c1ccc2n1CCC2C(=O)O (configuration not stated) [Ketorolac] | 0.394 | 0.318 | 0.509 | 0.68 | 0.699 | 0.708 | 0.662 | 0.835 | 0.837
CCCCCCCCCCCCCCCC(=O)OC[C@H](O)[C@H]1OC(=O)C(O)=C1O [L-Ascorbyl 6-palmitate] | 0.109 | 0.0552 | 0.67 | 0.72 | 0.149 | 0.681 | 0.597 | 0.728 | 0.171
O=C(/C=C/c1ccc(CN(CCO)CCc2c[nH]c3ccccc23)cc1)NO [LAQ824] | 0.795 | 0.817 | 0.771 | 0.825 | 0.844 | 0.367 | 0.0481 | 0.0127 | 0.0133
Cc1c(C(=O)Nc2ccc(N3C[C@@H](C)O[C@@H](C)C3)nc2)cccc1-c1ccc(OC(F)(F)F)cc1 [LDE225 (NVP-LDE225,Erismodegib)] | 0.873 | 0.827 | 0.785 | 0.87 | 0.822 | 0.779 | 0.716 | 0.617 | 0.118
Nc1cccc2c1CN(C1CCC(=O)NC1=O)C2=O (configuration not stated) [Lenalidomide (CC-5013)] | 0.913 | 0.795 | 0.742 | 0.739 | 0.717 | 0.692 | 0.725 | 0.715 | 0.754
N#Cc1ccc(C(c2ccc(C#N)cc2)n2cncn2)cc1 [Letrozole] | 0.887 | 0.875 | 0.775 | 0.752 | 1.03 | 0.747 | 0.729 | 0.555 | 0.612
CC(=O)NC[C@H]1CN(c2ccc(N3CCOCC3)c(F)c2)C(=O)O1 [Linezolid] | 0.809 | 0.762 | 0.784 | 0.715 | 0.717 | 0.64 | 0.75 | 0.795 | 0.746
CN(C)C(=O)C(CCN1CCC(O)(c2ccc(Cl)cc2)CC1)(c1ccccc1)c1ccccc1 [Loperamide HCl] | 0.83 | 0.776 | 0.782 | 0.799 | 0.793 | 0.779 | 0.749 | 0.623 | 0.414
Cn1cc(/C=C/C(=O)c2cccc(F)c2)cc1/C=C/C(=O)NO [MC1568] | 0.833 | 0.742 | 0.824 | 0.849 | 0.755 | 0.768 | 0.722 | 0.695 | 0.579
CC(C)C[C@@H](C=O)NC(=O)[C@H](CC(C)C)NC(=O)[C@H](CC(C)C)NC(=O)OCc1ccccc1 [MG132] (Cbz-Leu-Leu-Leu-aldehyde) | 0.871 | 0.868 | 0.914 | 0.77 | 0.783 | 0.686 | 0.0159 | 0.0111 | 0.0124

Part of the list above, set out differently:

| Structure (SMILES) | relative viability (0.0128 nM) | relative viability (0.064 nM) | relative viability (0.32 nM) | relative viability (1.6 nM) | relative viability (8 nM) | relative viability (40 nM) | relative viability (200 nM) | relative viability (1000 nM) | relative viability (5000 nM) |
| --- | --- | --- | --- | --- | --- | --- | --- | --- | --- |
| Nc1cccc2c1CN(C1CCC(=O)NC1=O)C2=O (configuration not stated) [Lenalidomide (CC-5013)] | 0.913 | 0.795 | 0.742 | 0.739 | 0.717 | 0.692 | 0.725 | 0.715 | 0.754 |
| N#Cc1ccc(C(c2ccc(C#N)cc2)n2cncn2)cc1 [Letrozole] | 0.887 | 0.875 | 0.775 | 0.752 | 1.03 | 0.747 | 0.729 | 0.555 | 0.612 |
